The list shows a part of the results.
Biological target: T1, OsSMF1 (Oryza sativa, UniProt Q6ZLB0 1-436)
T1 sequence: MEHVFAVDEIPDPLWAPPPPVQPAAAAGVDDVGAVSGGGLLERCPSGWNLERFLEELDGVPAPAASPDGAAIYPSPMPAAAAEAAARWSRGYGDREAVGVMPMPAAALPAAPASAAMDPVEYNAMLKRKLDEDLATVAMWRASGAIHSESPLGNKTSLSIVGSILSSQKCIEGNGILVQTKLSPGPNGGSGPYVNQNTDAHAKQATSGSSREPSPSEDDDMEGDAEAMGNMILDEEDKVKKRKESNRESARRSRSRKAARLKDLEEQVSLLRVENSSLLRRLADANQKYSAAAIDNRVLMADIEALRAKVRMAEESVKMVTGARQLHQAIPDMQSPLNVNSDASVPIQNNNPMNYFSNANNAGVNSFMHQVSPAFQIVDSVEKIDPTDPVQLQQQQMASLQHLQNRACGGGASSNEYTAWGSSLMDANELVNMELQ
Test: protein-binding microarray (RPBM); PBS, 2% BSA, 51.3 ng/ul salmon testes DNA, 50 uM zinc acetate, 200 nM TF, 25 C, 1 h; high values mean tight binding
Settings: protein: recombinant; tags: N-terminal polyhistidine and DsRed monomer fusion (pET32a); chain copies: 2; label: CyDye5-dUTP incorporated in the synthesized complementary strand; 3' TTTTT single-stranded linker to array surface; dsDNA, one strand shown
Outline: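 For the binding signal, per-feature fluorescence intensity was read in arbitrary units on an Axon 4000B scanner. Before scanning, a 2% BSA-blocked custom Agilent array made double-stranded with Cy5-dUTP was washed after 1 h at 25 °C with 200 nM protein and 50 µM zinc acetate. The proteins were Ni–NTA-purified transcription factors with N-terminal polyhistidine and DsRed fusions, expressed in E. coli BL21-CodonPlus.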

Row | Sequence | binding signal
1 | TCTAGCTCTGACTCAAATCGTACTGCATTATCACCAGCTCCGGAGTCACCTAGTGCAG | 5150 fluorescence intensity (a.u.)
2 | GATCTGGAGTCCGGCGAGGACTCCTCCGACTCTGTCACCTCGGAGTCACCTAGTGCAG | 3370 fluorescence intensity (a.u.)
3 | ACGCTGACTCTGTCAATATCAACATCTTCAGTTACTATTCCGGAGTCACCTAGTGCAG | 5460 fluorescence intensity (a.u.)
4 | TTTGGAGGACGGTTTCACGGACGTGAGTGTTGACATGGAGCGGAGTCACCTAGTGCAG | 3320 fluorescence intensity (a.u.)
5 | TAACCAAGTGTGACACGTGAGCCATGAACTTACGATCGAACGGAGTCACCTAGTGCAG | 3270 fluorescence intensity (a.u.)
6 | CGACGAGAAACTCAAGGTTGTCTCTGTCATTGGAGTTGGACGGAGTCACCTAGTGCAG | 3210 fluorescence intensity (a.u.)
7 | TTTTCTATTTGGTTGTAATAGCATGATGTGTACTAAGCATCGGAGTCACCTAGTGCAG | 3690 fluorescence intensity (a.u.)
8 | GTCACAGATTCGGTATGAATCTTTGCCACGTTCATGGATGCGGAGTCACCTAGTGCAG | 5750 fluorescence intensity (a.u.)
9 | AGAAGTGTGGAATGCATGGTTTAGCCTTGTGAGCCCCACACGGAGTCACCTAGTGCAG | 3370 fluorescence intensity (a.u.)
10 | TTAATACCTGGTCTCACCTGTCATACACACATTACGTCTTCGGAGTCACCTAGTGCAG | 3570 fluorescence intensity (a.u.)
11 | ATCAAAATGATGTATCGTACAGTCATTGCGTCAATCGGTACGGAGTCACCTAGTGCAG | 6100 fluorescence intensity (a.u.)
12 | ACGCCGCCGGTTCTGTTTCGCCGTCAGCGTTGTCTTCCCCCGGAGTCACCTAGTGCAG | 4440 fluorescence intensity (a.u.)
13 | GGACTGGATATTGGATAGCATGCGAAAAGTCAGTTACGTGCGGAGTCACCTAGTGCAG | 3490 fluorescence intensity (a.u.)
14 | ATACCTCTTATTAAATAGAATGTTTATGAGTGGACGTGTACGGAGTCACCTAGTGCAG | 3780 fluorescence intensity (a.u.)
15 | GTGAATATAAAGACTGTGTCAACACGTATATGTTCATATGCGGAGTCACCTAGTGCAG | 3340 fluorescence intensity (a.u.)
16 | GGCGATAGTAACCATCTCCATCCCTTCTTCTCAGTTTAGACGGAGTCACCTAGTGCAG | 3290 fluorescence intensity (a.u.)
17 | CTGCACACACGTGTCTTGCTGAATTCCTCCACCGTGGCAACGGAGTCACCTAGTGCAG | 6480 fluorescence intensity (a.u.)
18 | ATTGCAGTGGACTGAAACATTCTTTCGCTATTTGCTGAAACGGAGTCACCTAGTGCAG | 3590 fluorescence intensity (a.u.)
19 | CCAGGTCCCAGCCAGGGGTTTATTAGCTGATTCAAGACGTCGGAGTCACCTAGTGCAG | 14900 fluorescence intensity (a.u.)
20 | CTCATCTCTCTCGTTTTCCTCGCACACGCTTTTCAAACTGCGGAGTCACCTAGTGCAG | 3680 fluorescence intensity (a.u.)
21 | CATCCCTTTCATCTATTTACACCAATGACAGGTGGGTACACGGAGTCACCTAGTGCAG | 4390 fluorescence intensity (a.u.)
22 | CTAAATCTTTGCCCGTCACAGATGAGTGTTATCAGTGACGCGGAGTCACCTAGTGCAG | 4140 fluorescence intensity (a.u.)
23 | TCAAACAATAGTGTAAATATAGCTACGTAAGTTCATTGACCGGAGTCACCTAGTGCAG | 3470 fluorescence intensity (a.u.)
24 | GCAACGTTGCTGGCACGTGCGCACGAATTAGCTCTCATGACGGAGTCACCTAGTGCAG | 3800 fluorescence intensity (a.u.)
25 | AAAACAAGGTTAGTTTGCCACCTCCTTTTCCTCTGTCGCCCGGAGTCACCTAGTGCAG | 3180 fluorescence intensity (a.u.)
26 | TACCTCGCGAGTGCTGGGGAGGATTGCGTGATCCATGTCTCGGAGTCACCTAGTGCAG | 14800 fluorescence intensity (a.u.)
27 | GCGCCACCCCTTCCCTCTCCCTGACACGTGGGCCCCGCACCGGAGTCACCTAGTGCAG | 13200 fluorescence intensity (a.u.)

Rewritten as tab-separated lines: entries from further up
Row	Sequence	binding signal
1	TCTAGCTCTGACTCAAATCGTACTGCATTATCACCAGCTCCGGAGTCACCTAGTGCAG	5150 fluorescence intensity (a.u.)
5	TAACCAAGTGTGACACGTGAGCCATGAACTTACGATCGAACGGAGTCACCTAGTGCAG	3270 fluorescence intensity (a.u.)

Later entries

Row | Sequence | binding signal
28 | CCCTGGCGCGGCTCTCGCACGCCTCGTCGGAGAACGCGCACGGAGTCACCTAGTGCAG | 4040 fluorescence intensity (a.u.)
29 | GTAAAGCACAATTCGAGGATTAGCTCCAGAATCCCAGATCCGGAGTCACCTAGTGCAG | 5550 fluorescence intensity (a.u.)
30 | GCCACGCGAATCCACGCCGCCGCCGCCTCTTGACCTAGCGCGGAGTCACCTAGTGCAG | 4050 fluorescence intensity (a.u.)
31 | CTTGTTTCAGTGTTGACATTGGTTATTTCTCAATTCATTCCGGAGTCACCTAGTGCAG | 6570 fluorescence intensity (a.u.)
32 | CCGGGGACTCGGCAGCGGCGGCAGATCCGGAGGCAAAGCACGGAGTCACCTAGTGCAG | 30500 fluorescence intensity (a.u.)
33 | GTGCAGCGTGGAGACACGCTGACGCACATGCAGAAACCGACGGAGTCACCTAGTGCAG | 3810 fluorescence intensity (a.u.)
34 | AGCTCGATCTAGATGGCGTCATCGCTGCTATTGTCGTAGTCGGAGTCACCTAGTGCAG | 16200 fluorescence intensity (a.u.)
35 | GCGGCTGAATTAATCTCCATCTGGCGAGCATCCACATCCTCGGAGTCACCTAGTGCAG | 52300 fluorescence intensity (a.u.)
36 | CCAGCTCGTGGCAATCCGACCGCCTACGTGTCCACATCGCCGGAGTCACCTAGTGCAG | 13100 fluorescence intensity (a.u.)
37 | AGCCGCGCTGTGTGCGTGCGTGCGTGGTTGCTGCGGCTTCCGGAGTCACCTAGTGCAG | 3330 fluorescence intensity (a.u.)
38 | TATTTAGGATAAAATTTTATGAAAACATTTAAAATTTGACCGGAGTCACCTAGTGCAG | 26200 fluorescence intensity (a.u.)
39 | TTAGATTCAGGGGTGTAAAGTTTTGGCGTGTCACATCGGGCGGAGTCACCTAGTGCAG | 3970 fluorescence intensity (a.u.)
40 | CCCGCCCACTCACCCGCCCACGCGGCTGCCAGCCTACCAACGGAGTCACCTAGTGCAG | 3760 fluorescence intensity (a.u.)
41 | TCGGCTGACTCGGCGACTGACCGCGCGCCACCGCCGCTGACGGAGTCACCTAGTGCAG | 5800 fluorescence intensity (a.u.)
42 | CGTGGACACGTACACTCGACTCTTTGGCAGTGGAGACTGACGGAGTCACCTAGTGCAG | 4370 fluorescence intensity (a.u.)
43 | AGCTCGCCACGCTGTGCGACATCCCCGTCGCCGTCGTGTGCGGAGTCACCTAGTGCAG | 3280 fluorescence intensity (a.u.)
44 | TGAGCACGAGCCCGGCTTCCTCCGGCGTCAGCGGGCACCGCGGAGTCACCTAGTGCAG | 3260 fluorescence intensity (a.u.)
45 | AATATGTAACATTTTCTTTGCATACTTGAATATTGCATCACGGAGTCACCTAGTGCAG | 3480 fluorescence intensity (a.u.)
46 | CACCAATAGTGTGGATGGCGGGTGACGGTCATCGTCTCTACGGAGTCACCTAGTGCAG | 4070 fluorescence intensity (a.u.)
47 | TCTGTTCTTTTGAGTCAAATGACTTGGTGTGTGACCGTGTCGGAGTCACCTAGTGCAG | 3140 fluorescence intensity (a.u.)
48 | GAAGCTGTCATCGCTGATGCGGCGAAGAGATCATCATCACCGGAGTCACCTAGTGCAG | 4450 fluorescence intensity (a.u.)
49 | AGCACTCCCTGGTGCCGCCGGCAGAGCTTCCTAACGTCACCGGAGTCACCTAGTGCAG | 4460 fluorescence intensity (a.u.)
50 | CAGTGCGGCAGTGGCGGGCAGTGCCACAAGCAGCGTCGACCGGAGTCACCTAGTGCAG | 3610 fluorescence intensity (a.u.)
51 | CGAAACGGCGAGAAGGGAACCGCCTCGGCCACGCTGGACCCGGAGTCACCTAGTGCAG | 3740 fluorescence intensity (a.u.)
52 | CGGTGGATCGTGACGTGCTGTGGTGGTCTCTGATCTGCTCCGGAGTCACCTAGTGCAG | 6990 fluorescence intensity (a.u.)
53 | TGCTATGCTATGGCAAGAACATCTTGAGCCATGACATCATCGGAGTCACCTAGTGCAG | 4390 fluorescence intensity (a.u.)
54 | ATACACCAGGACCACAGCGATGCCTGATATTGACAACCCACGGAGTCACCTAGTGCAG | 11000 fluorescence intensity (a.u.)
